In US20110189095A1, “CRKL TARGETING PEPTIDES” (The Board of Regents, of the University of Texas System, priority 2008, published 2011):
No constants are given. Whether binding was seen depends on the method and setting. Some results given as binding are weak or reduced against the parent protein; the word gives no strength. For part of these data: Tags and fused reporters may be left off the sequences shown.

Amino acid sequences for entries named in this document (tags omitted). A change or cut given only in a name is not applied to a line headed by its entry.
UniProt P46109: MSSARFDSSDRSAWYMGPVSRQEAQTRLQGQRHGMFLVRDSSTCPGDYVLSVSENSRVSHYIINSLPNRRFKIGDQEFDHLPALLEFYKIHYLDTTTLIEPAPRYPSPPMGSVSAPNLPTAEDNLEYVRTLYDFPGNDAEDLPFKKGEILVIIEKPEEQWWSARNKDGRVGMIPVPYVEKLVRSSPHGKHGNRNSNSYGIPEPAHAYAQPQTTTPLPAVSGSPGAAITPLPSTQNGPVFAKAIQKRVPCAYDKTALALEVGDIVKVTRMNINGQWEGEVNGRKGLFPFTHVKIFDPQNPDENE

Legend:
[1] = molecular target: recombinant His-tag rCRKL-SH3 (C) domain (Homo sapiens (Human)) (UniProt P46109); experiment: ELISA, His-tag protein on coated synthetic peptide (FIG. 3A)
[2] = molecular target: recombinant His-tag rCRKL-SH3 (N) domain (Homo sapiens (Human)) (UniProt P46109); experiment: as above
[3] = molecular target: CRKL of DU145 cells (cell extract, membrane fraction, cell surface or serum-free condition medium) (human) (UniProt P46109); experiment: gst-resin affinity column, DU145 serum-free condition medium, Western blot

YRCTLNSPFFWEDMTHECHA (cyclic Cys-Cys disulfide bridge (peptides were synthesized and cyclized)) [synthetic tumor-homing peptide … (SEQ ID NO:1)]
binding [1]: binds
binding [2]: binds

YRCTLNSPFFWEDMTHECHA (peptide, not shown: a dimerising Fc or GST) [recombinant gst-tag fusion protein expressing the tumor-homing peptide]
binding [3]: binds
